# Reference: PubChem BioAssay (EPA / NIEHS)
# Inconclusive means that the source gave no clear call. Such entries were picked first, then a sample of the others. Where the call is inconclusive, the potency comes from a doubtful curve fit. Active and inactive are the calls of the source. How the source made its calls: active means hit-call score of the fitted dose curve at least 0.9, where 1 is the maximum; inconclusive means response in the unintended direction; inactive means score below 0.9.
# Assay: Tanguay_ZF_120hpf_PFIN_legacy: (Legacy) Oregon State University Tanguay Lab 120 Hour Post-fertilization zebrafish Assay for Pectoral Fin Malformation (AID 2283648);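 further: each larva judged yes or no for fin defect by brightfield with dead larvae skipped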
# In short: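 Tropical 5D wild-type embryos, dechorionated with pronase at 4 hpf, were placed singly in wells at 6 hpf and statically exposed until 120 hpf at 28C, sealed and dark, with 0.64% (vol/vol) final DMSO; pectoral fin malformation scored present/absent.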
SMILES,AC50,outcome
Cc1ccc(C)c(C)c1,inconclusive: 111 µM,
NC1CCCCC1,inconclusive: 23.9 µM,
Cc1cn([C@H]2C[C@H](N=[N+]=[N-])[C@@H](CO)O2)c(=O)[nH]c1=O,inconclusive: 61 µM,
O=C=NCCCCCCN=C=O,inconclusive: 0.00156 µM,
OC1CCC(C2CCCCC2)CC1 (centres undefined),,inactive
Cc1cc2c(cc1C(F)(F)F)N(C(=O)Nc1ccc(Oc3cccnc3C)nc1)CC2,inconclusive: 37.2 µM,
COCC(C)O (centres undefined),,inactive
ClC1=C(Cl)C(Cl)(Cl)C(Cl)=C1Cl,inconclusive: 202 µM,
COc1cccc([C@H](O)C2CCN(CCc3ccc(F)cc3)CC2)c1OC,inconclusive: 194 µM,
NCc1cccc(C2CCN(C(=O)c3ccc(C#Cc4ccccc4F)o3)CC2)c1,inconclusive: 6.21 µM,
CCc1c(C(=O)NN2CCCCC2)nn(-c2ccc(Cl)cc2Cl)c1-c1ccc(Br)cc1,inconclusive: 6.15 µM,
CC(=O)N1CCN(c2ccc(OC[C@H]3CO[C@](Cn4ccnc4)(c4ccc(Cl)cc4Cl)O3)cc2)CC1,inconclusive: 17.1 µM,
c1ccc2c(c1)Cc1ccccc1-2,inconclusive: 202 µM,
Oc1cccc(O)c1,inconclusive: 1.56 µM,
COC(=O)c1c(Cl)c(Cl)c(C(=O)OC)c(Cl)c1Cl,inconclusive: 17.4 µM,
C#C[C@]1(O)CC[C@H]2[C@@H]3CCC4=CC(=O)CC[C@@H]4[C@H]3CC[C@@]21C,,inactive
CN(C)C(=O)Nc1ccc(Cl)c(Cl)c1,,inactive
O=[N+]([O-])C(CO)(CO)CO,inconclusive: 0.139 µM,
CCCCC(CC)COC(=O)CCCCC(=O)OCc1ccccc1 (centres undefined),,inactive

# Assay: Tanguay_ZF_120hpf_CFIN_legacy: (Legacy) Oregon State University Tanguay Lab 120 Hour Post-fertilization zebrafish Assay for Caudal Fin Malformation (AID 2283649)
# In short: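 Dechorionated Tropical 5D wild-type embryos, one per well from 6 hpf, static exposure to 120 hpf at 28C in 0.64% DMSO. Caudal fin malformation scored by brightfield as present/absent; not scored in dead embryos.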
SMILES,AC50,outcome
CCN(CC)C(=O)c1cc(S(=O)(=O)Cc2ccccc2)c(N2CCC(c3ccccc3)CC2)cc1N(CC)CCN(C)C,inconclusive: 5.53 µM,
COCCOC[C@H](CC1(C(=O)NC2CCC(C(=O)O)CC2)CCCC1)C(=O)Oc1ccc2c(c1)CCC2 (some centres undefined),,inactive
O=c1c(O)c(-c2ccc(O)c(O)c2)oc2cc(O)cc(O)c12,,inactive
C=C(C)C(N)=O,,inactive
c1ccc2[nH]c(-c3cscn3)nc2c1,inconclusive: 157 µM,
COCC(C)O (centres undefined),inconclusive: 202 µM,
Oc1cccc(O)c1,inconclusive: 24.9 µM,
CC1(C)C(=O)NC(=O)N1CO,inconclusive: 0.903 µM,
CC1=C(C)S(=O)(=O)CCS1(=O)=O,inconclusive: 143 µM,
CN(C)C(=O)Nc1ccc(Cl)c(Cl)c1,,inactive
